# Experimental data reported in PubChem BioAssay AID504467 (National Center for Advancing Translational Sciences (NCATS), 2011).
# The campaign covered roughly 330,000 compounds. About 7,700 (2.3%) were called active. This list was built around the results that the source calls inconclusive (neither active nor inactive); the mix of calls is not that of the screen. Calls come from the whole dose curve; as a rule, active = well fitted inhibition curve with a large enough effect; inconclusive = small, poorly fitted or top-dose-only effect, or effect the other way; inactive = flat fitted curve, though single readings scatter. Potencies of inconclusive entries are doubtful fits and often do not repeat.
# Assay: qHTS screen for small molecules that inhibit ELG1-dependent DNA repair in human embryonic kidney (HEK293T) cells expressing luciferase-tagged ELG1; note: nearly all actives have a fitted effect of over 55% in size
# Conditions: HEK293T ELG1-luciferase reporter, luminescence, 16 h, DNA damage induced by 5-fluorouridine; activity change, negative = inhibition: at 46.1 µM (top of the series)
# Outline: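 Quantitative HTS, concentration-response format. 2,000 cells/well co-treated with 5-fluorouridine and compound, 16 hr in 5% CO2 at 37 °C; ONE-Glo luminescence read after 30 min.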
# % is set by controls: 0 for no effect and ±100 for the full control effect; potency is the fitted concentration of half-maximal effect.
Compound,Potency,"activity change, negative = inhibition"
CN(C)S(=O)(=O)c1cc(NC(=O)CN2CCCc3ccccc32)ccc1Cl,"inconclusive: 18.3 µM [inhibitor, single point]",–
COc1cc(C(F)(F)F)nc2ccc(C#CCOC(=O)Nc3ccccc3)cc12,"inconclusive: 20.6 µM [inhibitor, single point]",–
Cc1cccc(/C(N)=N/OC(=O)CCc2ccccc2)c1,"inconclusive: 20.6 µM [activator, single point]",–
COc1ccc(NC(=O)CSc2nc3scc(C)c3c(=O)[nH]2)cc1,–,inactive: 24.5%
O=C(NCc1ccc(Cl)cc1Cl)C1CCN(S(=O)(=O)c2ccc3c(c2)OCCCO3)CC1,"inconclusive: 13 µM [inhibitor, partial curve, poor fit]",–
Cc1ccc(C)c(N(C(=O)CNC(=O)c2ccco2)C(C(=O)NCC2CCCO2)c2ccccc2)c1 (stereo not drawn),–,inactive: -13.5%
O=C(CSc1nc2scc(-c3ccccc3)c2c(=O)[nH]1)N1CCOCC1,–,inactive: 10.9%
Cc1oncc1C(=O)Nc1cccc(C#N)c1,"inconclusive: 13 µM [activator, partial curve, poor fit]",–
CCc1c(C)c(C#N)c2nc3ccccc3n2c1NCc1ccco1,"inconclusive: 23.1 µM [inhibitor, partial curve]",–
C#CCOCCOCCOCCNc1nc(N2CCN(C(=O)C(Cc3cc4ccccc4[nH]3)n3cc(C(N)C(C)CC)nn3)CC2)nc(N2CCN(C(=O)C(Cc3cc4ccccc4[nH]3)n3cc(C(N)C(C)CC)nn3)CC2)n1 (stereo not drawn),"inconclusive: 32.6 µM [activator, single point]",–
COC(=O)c1ccc(-c2nc3cc(Cl)c(N)cc3s2)cc1,"inconclusive: 0.116 µM [activator, full curve, poor fit]",–
COc1ccc(-c2nnc(NC(=O)c3cc(Cl)ccc3Cl)o2)cc1,–,inactive: -13.4%
Fc1ccccc1CNc1ccc(Cl)cc1,"inconclusive: 35.5 µM [activator, single point]",–
COc1ccc(/C=C2\CCCC(C(=O)C(F)(F)F)=C2O)cc1OC,"inconclusive: 20.6 µM [activator, single point]",–
CCC(C)(C(=O)NC1CCCCC1)N(C(=O)CNC(=O)c1ccccc1)c1c(C)n(C)n(-c2ccccc2)c1=O (stereo not drawn),–,inactive: -4.87%
O=C(/C=C/c1ccccc1[N+](=O)[O-])c1ccc(F)cc1,"inconclusive: 29.1 µM [activator, single point]",–
CCOc1ccc(-c2cc(CCCC(=O)NCc3cccnc3)no2)cc1,"inconclusive: 5.17 µM [activator, partial curve]",–
O=C(Nc1ccc(CN2CCOCC2)cc1)c1ccc(-c2cccc(Cl)c2)o1,"inconclusive: 7.94 µM [inhibitor, partial curve, poor fit]",–
CN1/C(=C\C(=O)COc2ccc3c(c2)OCO3)C(C)(C)c2ccccc21,–,inactive: -27.6%
COc1ccc(C(=O)N2CCN(Cc3cc(OC)ccc3OC)CC2)cc1,–,inactive: -2.59%
O=C(COC(=O)c1ccc2c(c1)OCCO2)NCCC1=CCCCC1,"inconclusive: 18.4 µM [activator, single point]",–
Cc1cccc(C(=O)N2N=C(c3ccc(NS(C)(=O)=O)cc3)CC2c2cccs2)c1 (stereo not drawn),"inconclusive: 20.6 µM [inhibitor, single point]",–
NNC(=O)c1nn(-c2ccc(Cl)cc2)cc1O,–,inactive: -11.6%

Compound,Potency,"activity change, negative = inhibition"
COc1ccc(CNS(=O)(=O)c2ccc(NC(=O)N3CCCCC3)cc2)cc1,"inconclusive: 6.51 µM [inhibitor, partial curve, poor fit]",–
CC(C)Oc1ccc(C(=O)Nc2cc(=O)n(C)c(=O)n2C)cc1,"inconclusive: 20.6 µM [activator, single point]",–
CC(C)(C)c1ccc(C(=O)NC(=O)CSc2n[nH]c(N)n2)cc1,"inconclusive: 29.1 µM [activator, single point]",–
CC(C)c1ccc(NC(=O)c2cccc(Br)c2)cc1,"inconclusive: 2.59 µM [activator, full curve]",–
Cc1cc(C(C)(C)C)nc2[nH]n(-c3ccccc3)c(=O)c12,"inconclusive: 1.46 µM [inhibitor, partial curve, poor fit]",–
CN1CCN(C(=O)c2cccc(COc3cc(Cl)ccc3Cl)c2)CC1,"inconclusive: 18.4 µM [activator, partial curve]",–
O=C(CCC(=O)c1ccc(Br)cc1)Nc1ccc(F)cc1,"inconclusive: 0.0651 µM [activator, partial curve, poor fit]",–
CCOC(=O)c1sc2ncnc(NCc3ccco3)c2c1C,"inconclusive: 29.1 µM [inhibitor, single point]",–
Cc1ccccc1CSCC(=O)c1c(N)n(CC(C)C)c(=O)n(C)c1=O,"inconclusive: 5.8 µM [inhibitor, full curve, poor fit]",–
CC1(C)CC(=O)c2c(-c3cccs3)n[nH]c2C1,"inconclusive: 16.4 µM [activator, single point]",–
Oc1ccc(-c2nc3ccccc3s2)cc1,"inconclusive: 4.61 µM [activator, partial curve]",–
COc1ccc(N(C(=O)c2cc3ccccc3oc2=O)C2C=CS(=O)(=O)C2)cc1 (stereo not drawn),–,inactive: 4.12%
COC(=O)c1ccc(C2C(C#N)=C(N)Oc3cc(O)ccc32)cc1 (stereo not drawn),–,inactive: -11.2%
COc1ccc(CNC(=O)C2CCCN2CCc2ccccc2)cc1OC (stereo not drawn),"inconclusive: 29.1 µM [inhibitor, single point]",–
CCCNC(=S)N1CCC(C(=O)c2ccc3c(c2)OCCO3)CC1,"inconclusive: 29.1 µM [inhibitor, single point]",–
CCCc1c(C(=O)NNc2cc(C(F)(F)F)ccc2Cl)cnn1-c1ccccc1,–,inactive: -18.9%
C/C(=N\NC(=O)CCc1ccc(S(=O)(=O)N2CCOCC2)cc1)c1ccc(Br)cc1,–,inactive: 15.2%
Cc1nnc(C)n1/N=C/c1ccc2c(c1)OCCO2,"inconclusive: 18.4 µM [activator, single point]",–
COc1ccccc1Nc1nnc(SCc2cc(=O)n3cc(C)ccc3n2)s1,"inconclusive: 29.1 µM [inhibitor, single point]",–
CCc1nn2cc(C(=O)c3cc(Cl)ccc3O)cnc2c1-c1ccc(F)cc1,"inconclusive: 29.1 µM [inhibitor, single point]",–
COCCN(C(=O)CCC(=O)Nc1cc(C)on1)C(C(=O)NC1CCCC1)c1ccc(C(C)C)cc1 (stereo not drawn),–,inactive: -1.57%
Cn1c(=O)c2c(nc(CN3CCN(Cc4ccccc4)CC3)n2Cc2ccc(F)cc2)n(C)c1=O,"inconclusive: 18.4 µM [inhibitor, partial curve, poor fit]",–
CCOc1ccccc1NC(=O)CSc1nc(=O)n(CCCN2CCOCC2)c2c1CCCC2,–,inactive: 9.57%

Compound,Potency,"activity change, negative = inhibition"
Nc1nnc(SCCOc2cccc(Br)c2)s1,"inconclusive: 35.5 µM [activator, single point]",–
CN(Cc1cccnc1)C(=O)c1cc(COc2ccc3c(c2)CCCC3)on1,"inconclusive: 10.3 µM [activator, partial curve]",–
CCOC(=O)C1(Cc2ccccc2C)CCCN(C(=O)c2ccoc2)C1 (stereo not drawn),"inconclusive: 29.1 µM [activator, single point]",–
O=C(Nc1nccs1)C1CCN(S(=O)(=O)c2c(Cl)cccc2Cl)CC1,"inconclusive: 29.1 µM [inhibitor, single point]",–
CCCCn1c(O)c(N=NC(=O)c2ccco2)c2ccccc21,"inconclusive: 25.9 µM [inhibitor, single point]",–
Cc1cccc(Nc2nc(Cl)ncc2F)c1C,"inconclusive: 1.26 µM [activator, single point]",–
CC(=O)Nc1ccc(S(=O)(=O)N(C)CC(=O)OCC(=O)NNC(=O)c2ccccc2F)cc1,"inconclusive: 1.46 µM [activator, partial curve, poor fit]",–
C#CCSc1nc(-c2ccccc2)cc(C(F)(F)F)c1C#N,–,inactive: 5.51%
COc1cccc(-c2cc(C(=O)Nc3ccc([N+](=O)[O-])cn3)c3ccccc3n2)c1,active: 13 µM,–
Cc1ccc(/C=C/C(=O)OCC(=O)NCCN2C(=O)CSC2=O)o1,–,inactive: 9.37%
COc1cc(OC)cc(C(=O)NNC(=O)CCNS(=O)(=O)c2ccc(Br)cc2)c1,–,inactive: -12.7%
O=C(CN1CCCc2ccccc21)Nc1ccc(F)cc1[N+](=O)[O-],"inconclusive: 29.1 µM [activator, partial curve, poor fit]",–
COc1ccc(OC)c(/C=C/C(=O)N2CCN(S(=O)(=O)c3cc(C)ccc3C)CC2)c1,"inconclusive: 18.3 µM [inhibitor, single point]",–
O=C(CNC(=O)c1ccco1)N=Nc1c(O)n(CCc2ccccc2)c2ccccc12,–,inactive: -6.02%
Fc1cc(Cl)c(OCc2noc(-c3ccsc3)n2)c(Cl)c1,"inconclusive: 14.6 µM [activator, partial curve]",–
COc1ccc2c(c1)CCc1sc(NC(=O)c3ccco3)nc1-2,"inconclusive: 8.2 µM [activator, partial curve]",–
CSc1cccc(NC(=S)NN(C)C)c1,–,inactive: 17.2%
Clc1ccc2c(NCc3ccco3)ncnc2c1,–,inactive: -4.72%
N=C(N)SCc1nc2ccccn2c1Br,–,inactive: -26.4%
Cc1cc(C)c(C)c(S(=O)(=O)NCC(=O)Nc2ccc(F)cc2)c1C,"inconclusive: 29.1 µM [inhibitor, single point]",–
CCOc1ccc(CCNC(=O)CN(C)S(=O)(=O)c2ccc3c(c2)CCC(=O)N3)cc1OCC,"inconclusive: 14.6 µM [inhibitor, partial curve]",–
CCOc1ccc(C2=Nc3ccc(Br)cc3C(c3ccc(N4CCOCC4)cc3)=NN2)cc1,"inconclusive: 14.6 µM [inhibitor, single point]",–

# 4 compounds picked at random from the list so far, as already listed:
Compound,Potency,"activity change, negative = inhibition"
COc1cccc(-c2cc(C(=O)Nc3ccc([N+](=O)[O-])cn3)c3ccccc3n2)c1,active: 13 µM,–
Cc1cc(C)c(C)c(S(=O)(=O)NCC(=O)Nc2ccc(F)cc2)c1C,"inconclusive: 29.1 µM [inhibitor, single point]",–
Cc1ccc(/C=C/C(=O)OCC(=O)NCCN2C(=O)CSC2=O)o1,–,inactive: 9.37%
O=C(Nc1nccs1)C1CCN(S(=O)(=O)c2c(Cl)cccc2Cl)CC1,"inconclusive: 29.1 µM [inhibitor, single point]",–
